Measurements reported in PubChem BioAssay AID743121 (NCATS, 2013)
Test: 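Genes whose silencing strengthens cell killing by camptothecin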 (primary screen). System: MDA-MB-231 cells, a human breast cancer line. Reagent: single siRNA against human genes, 20 nM siRNA (0.8 pmol per well). Duration: 120 h (drug added 48 h after transfection, read 72 h later). Challenge: camptothecin 20 nM (about EC30) for 72 h; vehicle 0.1% DMSO in parallel plates. Detection: 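CellTiter-Glo ATP signal, scaled to control siRNA as percent viability; sensitisation given as log2 of untreated divided by camptothecin-treated viability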. Reading the numbers: log2 vehicle/camptothecin viability: higher = stronger sensitisation to camptothecin; viability with camptothecin: higher = more viable cells. Units: viability with camptothecin in % of control. Call rule: 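Active genes have an RSA gene-level p-value below 0.001, computed from the ratios of their separate siRNAs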.
The deposit covers about 26,000 reagents; this is a random part of them. 167 of all reagents (0.63%) were called active. 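Calls are per gene from RSA p-values that are not deposited; an individual active-marked siRNA can sensitise only weakly.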 Reagents against one gene are numbered here. Further read-outs or replicates are left out here.

With knock-down of DAXX (death domain associated protein) #1, the screen gave log2 vehicle/camptothecin viability 0.546; viability with camptothecin 67.1; inactive. For DAXX (death domain associated protein) #2 the deposit lists log2 vehicle/camptothecin viability -0.146; viability with camptothecin 108; inactive. For DAXX (death domain associated protein) #3 the deposit lists log2 vehicle/camptothecin viability -0.0755; viability with camptothecin 89.8; inactive. For HSD17B7P2 (hydroxysteroid 17-beta dehydrogenase 7 pseudogene 2), the entry reads log2 vehicle/camptothecin viability -0.613; viability with camptothecin 89.5; inactive. Against WDR5B (WD repeat domain 5B) #1 the deposit lists log2 vehicle/camptothecin viability -0.137; viability with camptothecin 103; inactive. Knock-down of WDR5B (WD repeat domain 5B) #2 gave: log2 vehicle/camptothecin viability -0.311; viability with camptothecin 54.4; inactive.

Silencing of WDR5B (WD repeat domain 5B) #3 gave: log2 vehicle/camptothecin viability -0.103; viability with camptothecin 62.9; inactive. After knock-down of WDR5B (WD repeat domain 5B) #4, the record shows log2 vehicle/camptothecin viability -0.229; viability with camptothecin 91.1; inactive. Depletion of RALB (RAS like proto-oncogene B) #1 came out at: log2 vehicle/camptothecin viability -0.247; viability with camptothecin 87.7; inactive. RALB (RAS like proto-oncogene B) #2 scored log2 vehicle/camptothecin viability 0.0206; viability with camptothecin 61.1; inactive. Knock-down of RALB (RAS like proto-oncogene B) #3 gave: log2 vehicle/camptothecin viability -0.242; viability with camptothecin 105; inactive. RALB (RAS like proto-oncogene B) #4 showed log2 vehicle/camptothecin viability 0.0557; viability with camptothecin 80.5; inactive.

With knock-down of EPHA3 (EPH receptor A3) #1, the record shows log2 vehicle/camptothecin viability -0.204; viability with camptothecin 104; inactive. After knock-down of EPHA3 (EPH receptor A3) #2 the results were log2 vehicle/camptothecin viability -0.195; viability with camptothecin 105; inactive. EPHA3 (EPH receptor A3) #3 gave log2 vehicle/camptothecin viability -0.587; viability with camptothecin 81.5; inactive. After knock-down of EPHA3 (EPH receptor A3) #4, the screen gave log2 vehicle/camptothecin viability 0.0294; viability with camptothecin 116; inactive.

2 consecutive entries from above, for reference:
WDR5B (WD repeat domain 5B) #1: log2 vehicle/camptothecin viability = -0.137; viability with camptothecin = 103; call = inactive
WDR5B (WD repeat domain 5B) #2: log2 vehicle/camptothecin viability = -0.311; viability with camptothecin = 54.4; call = inactive
